{
  "source": "PubChem BioAssay AID445",
  "about": "(National Center for Advancing Translational Sciences (NCATS), 2006)",
  "note": "This is one part of the list. These are further read-outs of the screen, such as a control signal, another cell line or another target. No call is given for them. Compounds called inactive in the main read-out are mostly missing here. Words in brackets tell the shape of the fitted curve; partial curves, single points and poor fits give uncertain potencies.",
  "data": [
    {"assay": "IkB Signaling", "conditions": "ABC-DLBCL IkBa-CBG/CBR dual luciferase ratio (green luciferase fused to IkBa over red control in OCI-Ly3 lymphoma cells), 4 h; measured here: control luc red channel unless noted", "in_short": "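In this assay, an IκBα–CBG68 fusion accumulates when IKK-driven degradation is blocked; native CBR normalizes for cell number. OCI-Ly3 cells were treated 4 h with compound and doxycycline, then green and red light read after Chroma-Glo addition.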", "values": [
      {"compound": "Cc1noc(C)c1S(=O)(=O)Nc1ccc(C(=O)Nc2ccc(C(C)C)cc2)cc1", "AC50": "25.1 µM [falling, single point]"},
      {"compound": "COc1c(C)cccc1C(=O)Nc1ccc(Cl)c(-c2nc3cc(C)ccc3o2)c1", "AC50": "1.58 µM [rising, partial curve]"},
      {"compound": "COc1ccc(-c2nc3sc(CCNC(=O)Cc4ccc(Cl)cc4)c(C)n3n2)cc1", "AC50": "20 µM [falling, single point]"},
      {"compound": "CCOc1ccc(C2C(=O)N(C3CCCCCC3)CC(=O)N2Cc2ccc(F)cc2)cc1OC", "note": "(stereo not drawn)", "AC50": "2 µM [rising, partial curve]"},
      {"compound": "C/C=C/Cn1c(SCc2ccc(Cl)cc2)nc2c1c(=O)[nH]c(=O)n2C", "AC50": "25.1 µM [falling, partial curve]"},
      {"compound": "COc1ccccc1CNc1nc2nc3c(c(=O)n2[nH]1)CCC3", "AC50": "7.94 µM [falling, partial curve]"},
      {"compound": "CC(C)c1ccc(NC(=O)c2ccc3oc(=O)c(S(=O)(=O)c4ccc(F)cc4)cc3c2)cc1", "AC50": "25.1 µM [falling, partial curve, poor fit]"},
      {"compound": "CC(C)c1ccc(NC(=O)CSc2ncnc3c2sc2ccccc23)cc1", "AC50": "12.6 µM [falling, partial curve]"},
      {"compound": "CCN1CCN(c2ncc(C(=O)Nc3cc(Cl)ccc3OC)c3ccccc23)CC1", "AC50": "10 µM [falling, partial curve]"},
      {"compound": "O=C(Nc1ccc(-c2nc3ccccc3o2)c(O)c1)c1cc(Cl)ccc1Cl", "AC50": "39.8 µM [falling, single point]"},
      {"compound": "CCCCc1ccc(Nc2cc(C)nc(-n3nc(C)cc3C)n2)cc1", "AC50": "20 µM [falling, partial curve]"},
      {"compound": "O=C(NCC(c1cccnc1)N1CCc2ccccc2C1)C(=O)Nc1ccccc1F", "note": "(stereo not drawn)", "AC50": "5.01 µM [falling, partial curve]"},
      {"compound": "O=C(CSc1nnc(CNC(=O)c2ccccc2F)o1)c1ccc(Cl)cc1", "AC50": "10 µM [falling, partial curve]"},
      {"compound": "CCN1CCc2c(sc(NC(=O)c3ccc(S(=O)(=O)N(C)C4CCCCC4)cc3)c2C(N)=O)C1", "AC50": "12.6 µM [falling, partial curve]"},
      {"compound": "CC1Cc2cc(S(=O)(=O)CCC(=O)Nc3ccc(F)cc3)ccc2N1C(=O)C1CC1", "note": "(stereo not drawn)", "AC50": "25.1 µM [falling, single point]"},
      {"compound": "Cc1ccc(OCc2ccc(C(=O)N3CCOCC3)cc2)cc1C", "AC50": "25.1 µM [falling, partial curve]"},
      {"compound": "COc1ccc(NC(=O)COc2nsnc2N2CCCCC2)cc1", "AC50": "15.8 µM [falling, partial curve]"},
      {"compound": "COc1ccc(-c2noc(-c3cccc(Cl)c3)n2)cc1OC", "AC50": "0.398 µM [rising, full curve, poor fit]"},
      {"compound": "CN(C(=O)c1c[nH]c2ccc(S(=O)(=O)Nc3cccc(C(F)(F)F)c3)cc2c1=O)C1CCCCC1", "AC50": "15.8 µM [falling, partial curve]"},
      {"compound": "COc1cccc2sc(NC(=O)c3ccc(S(=O)(=O)N4CCOCC4)cc3)nc12", "AC50": "15.8 µM [falling, partial curve]"},
      {"compound": "CN(C)S(=O)(=O)c1ccc(C(=O)NCCSc2c(-c3ccc(Br)cc3)[nH]c3ccccc23)cc1", "AC50": "7.94 µM [falling, full curve]"},
      {"compound": "O=C(CCN1CCN(CCC(=O)c2ccccc2)CC1)c1ccccc1", "AC50": "25.1 µM [falling, partial curve]"},
      {"compound": "O=C(NCCc1ccc(Cl)cc1)c1nnc(Cc2ccc(F)cc2)o1", "AC50": "0.398 µM [rising, single point]"},
      {"compound": "Cc1ccc(NC(=O)C2CCCN(c3ncnc4onc(C)c34)C2)c(Cl)c1", "note": "(stereo not drawn)", "AC50": "20 µM [falling, partial curve]"},
      {"compound": "Cc1nn(-c2ccccc2)c2c1C1(C(=O)Nc3ccccc31)N1C(=N2)Sc2ccccc21", "note": "(stereo not drawn)", "AC50": "39.8 µM [falling, partial curve]"},
      {"compound": "O=C(Nc1ccc(Cl)cc1C(=O)Nc1ccncc1)c1ccco1", "AC50": "15.8 µM [falling, partial curve]"},
      {"compound": "CCc1sc(Nc2cccc(Cl)c2)nc1-c1cc2cccc(OC)c2oc1=O", "AC50": "10 µM [falling, partial curve]"},
      {"compound": "COc1ccc(NC(=O)CN2C(=O)C(C)(C)c3cc(S(=O)(=O)N4CCCCC4)ccc32)cc1Cl", "AC50": "1 µM [rising, single point]"},
      {"compound": "CC(=O)C1=C(C)NC(SCSc2ccccc2)=C(C#N)C1c1cccnc1", "note": "(stereo not drawn)", "AC50": "31.6 µM [falling, single point]"},
      {"compound": "COc1ccc2oc(=O)c(-c3nnc(NCc4ccco4)s3)cc2c1", "AC50": "6.31 µM [rising, full curve] [measured here: IkB-luc green channel]"},
      {"compound": "COC(=O)C1=C(C)NC(=O)NC1c1cn(-c2ccccc2)nc1-c1ccc(OC)c(Br)c1", "note": "(stereo not drawn)", "AC50": "31.6 µM [falling, partial curve]"},
      {"compound": "Cn1c(-c2ccco2)nc2cc3ccccc3cc21", "AC50": "15.8 µM [falling, partial curve]"},
      {"compound": "COc1cccc(-n2c(SCC(=O)c3ccccc3)nc3c([nH]c4ccccc43)c2=O)c1", "AC50": "2 µM [rising, partial curve]"},
      {"compound": "CCCn1c(COc2cccc(C)c2)nc2ccccc21", "AC50": "25.1 µM [falling, single point]"},
      {"compound": "Cc1ccccc1-c1nnc(SCC(=O)N(C)c2ccccc2)o1", "AC50": "15.8 µM [falling, partial curve]"},
      {"compound": "Cc1ccc(S(=O)(=O)NCc2ccc(C(=O)N3CCN(c4ccccn4)CC3)cc2)cc1", "AC50": "12.6 µM [falling, partial curve]"},
      {"compound": "CCCCNc1nc2c(-c3cccc(C)c3)nnn2c2ccccc12", "AC50": "25.1 µM [falling, single point]"},
      {"compound": "CCn1c(SCC(=O)NCc2ccco2)nnc1C(C)C", "AC50": "25.1 µM [rising, single point] [measured here: IkB-luc green channel]"},
      {"compound": "Cc1cccc(OCC(=O)Nc2cccc(C(=O)OCc3cc(=O)n4nc(C(C)C)sc4n3)c2)c1", "AC50": "5.01 µM [falling, partial curve]"},
      {"compound": "N/N=C1/CC(=O)NC(=O)N1", "AC50": "2.51 µM [falling, partial curve]"},
      {"compound": "Cc1ccccc1CCNC(=O)c1ccc(NC(=O)N2CC(C)Sc3ccccc32)cc1", "note": "(stereo not drawn)", "AC50": "15.8 µM [falling, partial curve]"},
      {"compound": "COc1ccccc1OCCn1c(C(C)O)nc2ccccc21", "note": "(stereo not drawn)", "AC50": "25.1 µM [rising, single point] [measured here: IkB-luc green channel]"},
      {"compound": "O=C(Cc1c(O)c2ccccc2[nH]c1=O)NC1CCCCCC1", "AC50": "1.26 µM [falling, full curve]"},
      {"compound": "[N-]=[N+]=CC(=O)CC(c1ccccc1)N1C(=O)c2ccccc2C1=O", "note": "(stereo not drawn)", "AC50": "0.398 µM [falling, partial curve]"},
      {"compound": "Cc1ccc(C)c(Nc2nnc(-c3ccc(C)c(S(=O)(=O)N4CCN(C)CC4)c3)c3ccccc23)c1", "AC50": "39.8 µM [falling, single point]"},
      {"compound": "CCOc1ccc(NC(=O)CSc2oc(-c3cccs3)nc2S(=O)(=O)c2ccc(C)cc2)cc1", "AC50": "2 µM [falling, full curve, poor fit]"},
      {"compound": "CCn1nc(C)c2c(-c3ccccc3)cc(=O)n(C(C)C(=O)Nc3cccc(F)c3)c21", "note": "(stereo not drawn)", "AC50": "12.6 µM [falling, partial curve, poor fit]"},
      {"compound": "Nc1nc2ccc(C(=O)Nc3ccccc3)cc2s1", "AC50": "15.8 µM [falling, partial curve]"},
      {"compound": "Cc1ccc(C2=CC(c3ccccc3C)n3c(nc4ccccc43)N2)cc1", "note": "(stereo not drawn)", "AC50": "3.98 µM [falling, partial curve]"},
      {"compound": "COc1ccccc1NC(=O)Cn1cnc2c(cnn2-c2ccccc2)c1=O", "AC50": "39.8 µM [falling, single point]"},
      {"compound": "Cc1ccc2nc(/C(C#N)=N/O)[nH]c2c1", "AC50": "39.8 µM [falling, single point]"},
      {"compound": "CCc1ccc(NC(=O)CN2CCN(C3CCCCC3)C(=O)C2=O)cc1", "AC50": "25.1 µM [falling, partial curve, poor fit]"},
      {"compound": "Cc1ccc(/C=C(\\C#N)C(=O)Nc2ccc(Br)cc2)o1", "AC50": "12.6 µM [falling, partial curve]"},
      {"compound": "Cn1c(CCNC(=O)c2ccco2)nc2cc(NS(=O)(=O)c3ccccc3)ccc21", "AC50": "10 µM [falling, partial curve]"},
      {"compound": "CN(C)CCNC(=O)CN1N=C(c2ccccc2)CCC1=O", "AC50": "0.0398 µM [falling, full curve, poor fit]"},
      {"compound": "COc1cc(C2C(=O)N(C3CCCCCC3)CC(=O)N2Cc2ccccc2)ccc1OC(C)C", "note": "(stereo not drawn)", "AC50": "10 µM [falling, partial curve]"},
      {"compound": "CC(C)CCNC(=O)NC(=O)CSc1nnc(-c2ccccc2Br)o1", "AC50": "31.6 µM [falling, partial curve]"},
      {"compound": "Cc1sc2ncnc(N3CCN(c4ncccn4)CC3)c2c1C", "AC50": "25.1 µM [falling, partial curve]"},
      {"compound": "COC(=O)c1ccc(NC(=O)CN(Cc2ccccc2)S(=O)(=O)c2ccc(C)cc2)cc1", "AC50": "7.94 µM [falling, full curve]"},
      {"compound": "CCCC(=O)N1CCc2cc(OC)c(OC)cc2C1COc1ccc2c(C)cc(=O)oc2c1", "note": "(stereo not drawn)", "AC50": "0.126 µM [falling, full curve]"},
      {"compound": "COc1ccc(NC(=O)Cn2c(=O)cc(C)c3c(C)nn(C)c32)cc1", "AC50": "39.8 µM [falling, single point]"},
      {"compound": "Cc1ccc(Cl)cc1N1CCN(C(=O)c2cnn(C(C)(C)C)c2C2CCN(C(=O)OC(C)(C)C)CC2)CC1", "AC50": "25.1 µM [falling, partial curve]"},
      {"compound": "CCOc1ccc(NC(=O)Cn2cc(C(=O)c3ccc(CC)cc3)c(=O)c3cc4c(cc32)OCO4)cc1", "AC50": "25.1 µM [falling, single point]"}
    ]}
  ]
}
